Source: the supplement of paper PMC10849652
This is one part of the list.

Sequences of proteins named here, by UniProt entry; tags and fusion partners are left off. A change or cut given only in a name is not applied to a line headed by its entry.
UniProt P60604: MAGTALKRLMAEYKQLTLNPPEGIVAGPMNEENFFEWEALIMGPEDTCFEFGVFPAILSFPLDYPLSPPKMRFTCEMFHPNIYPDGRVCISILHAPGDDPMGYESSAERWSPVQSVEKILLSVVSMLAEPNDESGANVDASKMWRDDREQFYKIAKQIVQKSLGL
UniProt O14562: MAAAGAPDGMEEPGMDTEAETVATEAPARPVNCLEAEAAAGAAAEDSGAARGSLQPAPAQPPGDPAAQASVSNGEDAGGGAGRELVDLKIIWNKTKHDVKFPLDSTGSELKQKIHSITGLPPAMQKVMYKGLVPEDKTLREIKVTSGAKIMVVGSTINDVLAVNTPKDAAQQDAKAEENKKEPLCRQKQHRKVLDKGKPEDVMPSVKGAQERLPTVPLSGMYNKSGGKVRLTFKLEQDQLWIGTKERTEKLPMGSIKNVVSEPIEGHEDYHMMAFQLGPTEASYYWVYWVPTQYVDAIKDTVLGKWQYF
UniProt Q8WVN8: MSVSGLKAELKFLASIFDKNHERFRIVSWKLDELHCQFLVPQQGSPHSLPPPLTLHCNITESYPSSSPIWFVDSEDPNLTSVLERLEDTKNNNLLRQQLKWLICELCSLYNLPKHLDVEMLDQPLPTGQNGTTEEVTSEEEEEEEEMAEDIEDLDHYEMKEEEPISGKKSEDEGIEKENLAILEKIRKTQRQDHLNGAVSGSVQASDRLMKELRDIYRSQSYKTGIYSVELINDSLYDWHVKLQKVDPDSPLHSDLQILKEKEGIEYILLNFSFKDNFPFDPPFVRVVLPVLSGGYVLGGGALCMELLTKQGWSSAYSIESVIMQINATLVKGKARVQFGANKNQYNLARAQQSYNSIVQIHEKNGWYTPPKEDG
UniProt Q9NNW7, whole entry, looked up: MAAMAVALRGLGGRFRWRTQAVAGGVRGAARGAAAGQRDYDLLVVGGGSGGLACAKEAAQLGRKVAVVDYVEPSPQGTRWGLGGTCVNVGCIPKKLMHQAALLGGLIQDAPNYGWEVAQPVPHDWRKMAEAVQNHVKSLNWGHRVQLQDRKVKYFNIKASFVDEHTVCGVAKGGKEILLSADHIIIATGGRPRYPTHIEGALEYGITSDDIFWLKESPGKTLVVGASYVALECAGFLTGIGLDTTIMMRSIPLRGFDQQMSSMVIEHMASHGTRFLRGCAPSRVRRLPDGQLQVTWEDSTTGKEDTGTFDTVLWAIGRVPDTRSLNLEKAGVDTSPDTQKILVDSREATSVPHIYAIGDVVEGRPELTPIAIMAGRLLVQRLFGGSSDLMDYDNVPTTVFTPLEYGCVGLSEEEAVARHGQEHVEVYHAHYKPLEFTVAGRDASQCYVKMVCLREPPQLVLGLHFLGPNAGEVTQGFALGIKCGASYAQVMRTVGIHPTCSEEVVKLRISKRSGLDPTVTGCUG
UniProt Q9NZ09: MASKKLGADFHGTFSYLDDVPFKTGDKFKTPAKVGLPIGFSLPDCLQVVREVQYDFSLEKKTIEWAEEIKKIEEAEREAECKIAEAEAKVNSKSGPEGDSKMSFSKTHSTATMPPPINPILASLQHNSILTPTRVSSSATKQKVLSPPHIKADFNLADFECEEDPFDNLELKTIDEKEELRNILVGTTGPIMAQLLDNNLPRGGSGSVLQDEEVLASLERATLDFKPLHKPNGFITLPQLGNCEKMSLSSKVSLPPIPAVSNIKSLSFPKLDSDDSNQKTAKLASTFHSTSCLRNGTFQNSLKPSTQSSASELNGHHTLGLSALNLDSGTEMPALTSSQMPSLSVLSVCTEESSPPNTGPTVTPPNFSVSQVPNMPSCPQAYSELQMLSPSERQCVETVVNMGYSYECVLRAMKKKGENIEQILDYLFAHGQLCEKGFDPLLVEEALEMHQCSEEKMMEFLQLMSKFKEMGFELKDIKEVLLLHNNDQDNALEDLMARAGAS
UniProt O00124: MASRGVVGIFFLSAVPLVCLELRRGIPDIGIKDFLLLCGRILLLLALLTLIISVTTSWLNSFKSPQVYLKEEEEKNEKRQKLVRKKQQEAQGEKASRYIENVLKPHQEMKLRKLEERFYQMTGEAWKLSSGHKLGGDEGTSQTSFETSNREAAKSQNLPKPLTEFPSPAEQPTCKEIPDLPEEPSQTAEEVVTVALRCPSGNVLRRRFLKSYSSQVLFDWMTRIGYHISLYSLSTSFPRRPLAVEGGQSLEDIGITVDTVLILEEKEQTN
UBE2L5, A0A1B0GUS4, UniProt A0A1B0GUS4, whole entry, looked up: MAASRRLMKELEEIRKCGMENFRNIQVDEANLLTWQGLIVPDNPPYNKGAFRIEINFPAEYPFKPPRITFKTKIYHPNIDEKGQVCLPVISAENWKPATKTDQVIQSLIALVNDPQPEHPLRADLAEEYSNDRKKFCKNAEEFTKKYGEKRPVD

Key:
Assay in all cases: log2 fold change, soluble protein after heating vs DMSO (PISA); higher = thermal stabilisation; K562 lysate, 10 uM; active = over 0.2 and 3.5 SD of the protein, either way, in both replicates (recomputed)
[1] = compound: CN1CC[C@H](c2c(O)cc(O)c3c(=O)cc(-c4ccccc4Cl)oc23)[C@H](O)C1 [alvocidib]
Procedure, shortened: (§1)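 Pellets of K562 cells were dounce-homogenised in PBS pH 7.4 with 1 mM MgCl2, and the crude extract was held at 1 mg/mL protein for a 30 min treatment with 10 μM compound. Aliquots were heated for 3 min over 48°C-58°C and pooled before NP-40 was added to 0.5% at 4°C. The supernatant from 21,000xg for 90 min was quantified by TMTpro 16plex LC-MS/MS with channel sums equalised. Values are reported from duplicates as log-two fold change in thermal stability relative to solvent controls.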

[2] = compound: CN1CCc2c(c3ccccc3n2Cc2ccc(C(=O)NO)cc2)C1 [Tubastatin A]
Procedure, shortened: as §1

[3] = compound: CNC(=O)C1=CC=CC=C1NC2=NC(=NC=C2Cl)NC3=C(C=C(C=C3)N4CCOCC4)OC
Procedure, shortened: as §1

[4] = compound: CNC(=O)c1ccc(Nc2ncc(C(F)(F)F)c(NCc3nccnc3N(C)S(C)(=O)=O)n2)cc1 [defactinib]
Procedure, shortened: as §1

[5] = compound: CNc1nc(-c2ccc3c(N)n[nH]c3c2)cc(N2C[C@@H](C(=O)NC3CCCCC3)CC[C@H]2C)n1
Procedure, shortened: as §1

[6] = compound: COC(=O)N[C@@H](C)CNc1nccc(-c2cn(C(C)C)nc2-c2cc(Cl)cc(NS(C)(=O)=O)c2F)n1 [encorafenib]
Procedure, shortened: as §1

[7] = compound: COC(=O)[C@H](CCSC)NC(=O)C1=C(C=C(C=C1)NC[C@H](CS)N)C2=CC=CC=C2
Procedure, shortened: as §1

[8] = compound: COc1cc(Nc2ncc3c(n2)-c2ccc(Cl)cc2C(c2c(F)cccc2OC)=NC3)ccc1C(=O)O [alisertib]
Procedure, shortened: as §1

[9] = compound: COc1cc2nc(-c3cc(F)ccc3O)nc(N[C@@H]3CNC[C@H]3C(C)(C)O)c2cc1OC
Procedure, shortened: as §1

[10] = compound: COc1cc2ncnc(Nc3ccc(F)c(Cl)c3)c2cc1OCCCN1CCOCC1 [gefitinib]
Procedure, shortened: as §1

[11] = compound: CS(=O)(=O)CCNCc1ccc(-c2ccc3ncnc(Nc4ccc(OCc5cccc(F)c5)c(Cl)c4)c3c2)o1 [lapatinib]
Procedure, shortened: as §1

[12] = compound: C[C@@H](Oc1cc(-c2cnn(C3CCNCC3)c2)cnc1N)c1c(Cl)ccc(F)c1Cl [crizotinib]
Procedure, shortened: as §1

[13] = compound: C[C@H](C1=CC=C(C=C1)C(=O)NC2=C3C=CNC3=NC=C2)N
Procedure, shortened: as §1

[14] = compound: C[C@H](Nc1ncnc2nc[nH]c12)c1cc2cccc(Cl)c2c(=O)n1-c1ccccc1 [duvelisib]
Procedure, shortened: as §1

[15] = compound: Cc1cc(Nc2cc(CN3CCOCC3)c3nc(C)c(Cc4ccc(Cl)cc4F)n3n2)n[nH]1 [gandotinib]
Procedure, shortened: as §1

[16] = compound: Cc1cc(Nc2cc(N3CCN(C)CC3)nc(Sc3ccc(NC(=O)C4CC4)cc3)n2)n[nH]1 [tozasertib]
Procedure, shortened: as §1

[17] = compound: Cc1ccc(-n2nc(C(C)(C)C)cc2NC(=O)Nc2ccc(OCCN3CCOCC3)c3ccccc23)cc1 [doramapimod]
Procedure, shortened: as §1

[18] = compound: Cc1cccc(CC(=O)N2CCc3c2ccc(-c2cn(C)c4ncnc(N)c24)c3F)n1
Procedure, shortened: as §1

[19] = compound: CS(=O)(=O)N1CCN(Cc2cc3nc(-c4cccc5[nH]ncc45)nc(N4CCOCC4)c3s2)CC1 [pictilisib]
Procedure, shortened: as §1

[20] = compound: Cc1ccc(NC(=O)c2ccc(CN3CC[C@H](N(C)C)C3)c(C(F)(F)F)c2)cc1Nc1nccc(-c2cncnc2)n1 [bafetinib]
Procedure, shortened: as §1

Measured: log2 fold change

UBE2G2 (UniProt P60604)
inactive: [1] 0.025 | [2] -0.007 | [3] -0.013 | [4] 0.069 | [5] -0.052 | [6] -0.016 | [7] 0.097 | [8] 0.04 | [9] 0.021 | [10] -0.037 | [11] 0.058 | [12] 0.019 | [13] -0.045 | [14] 0.05 | [15] 0.018 | [16] -0.018 | [17] -0.07 | [18] 0.152

UBFD1 (UniProt O14562)
inactive: [1] -0.041 | [2] 0.051 | [3] -0.016 | [4] -0.014 | [5] 0.034 | [6] 0 | [7] -0.016 | [8] -0.008 | [9] 0.018 | [10] 0.002 | [11] -0.038 | [19] -0.005 | [12] -0.003 | [13] -0.047 | [14] -0.005 | [15] 0.047 | [16] 0.002 | [17] 0.029 | [20] 0.003 | [18] 0.017

UBE2Q2 (UniProt Q8WVN8)
inactive: [1] 0.04 | [2] 0.175 | [3] -0.02 | [4] 0.087 | [5] -0.306 | [6] 0.032 | [7] 0.129 | [8] 0.001 | [9] 0.011 | [10] 0.106 | [11] -0.04 | [19] -0.032 | [13] -0.028 | [14] -0.027 | [15] -0.021 | [16] -0.043 | [20] -0.019 | [18] -0.043

TXNRD2 (UniProt Q9NNW7)
inactive: [1] -0.006 | [2] 0.021 | [3] 0.018 | [4] 0.015 | [5] 0.007 | [6] 0.039 | [7] -0.034 | [8] 0 | [9] 0.008 | [10] -0.064 | [11] 0 | [19] -0.017 | [12] 0.003 | [13] -0.046 | [14] 0.084 | [15] 0.059 | [16] -0.042 | [17] -0.066 | [20] 0.041 | [18] 0.034

UBAP1 (UniProt Q9NZ09)
inactive: [1] -0.01 | [2] 0.008 | [3] 0.021 | [4] -0.074 | [5] -0.024 | [6] 0.006 | [7] -0.105 | [8] 0.043 | [9] -0.018 | [10] 0.002 | [11] 0.015 | [19] -0.033 | [12] 0.012 | [13] 0.008 | [14] -0.011 | [15] 0.007 | [16] -0.019 | [17] -0.017 | [20] 0.078 | [18] -0.033

UBXN8 (UniProt O00124)
inactive: [1] -0.039 | [2] -0.037 | [3] 0.025 | [5] 0.103 | [6] -0.144 | [7] -0.076 | [8] 0.045 | [10] -0.053 | [12] -0.263 | [13] -0.163 | [14] -0.117 | [15] -0.006 | [16] -0.002 | [17] 0.174 | [18] -0.056

TUBB4A (UniProt M0QYM7)
inactive: [1] -0.158 | [2] -0.007 | [3] -0.109 | [4] -0.115 | [6] 0.009 | [7] 0.053 | [8] -0.025 | [9] 0.042 | [10] -0.076 | [11] -0.009 | [19] -0.067 | [12] -0.176 | [15] 0.39 | [16] 0.138 | [17] 0.116 | [20] -0.516 | [18] 0.42
active: [13] -1.05

UBE2L5, A0A1B0GUS4
inactive: [1] -0.198 | [2] -0.102 | [3] -0.038 | [9] 0.062 | [11] -0.011 | [13] 0.054 | [15] 0.073 | [18] -0.001

Reprinted from above (two entries):
UBXN8 (UniProt O00124)
inactive: [1] -0.039 | [2] -0.037 | [3] 0.025 | [5] 0.103 | [6] -0.144 | [7] -0.076 | [8] 0.045 | [10] -0.053 | [12] -0.263 | [13] -0.163 | [14] -0.117 | [15] -0.006 | [16] -0.002 | [17] 0.174 | [18] -0.056

TUBB4A (UniProt M0QYM7)
inactive: [1] -0.158 | [2] -0.007 | [3] -0.109 | [4] -0.115 | [6] 0.009 | [7] 0.053 | [8] -0.025 | [9] 0.042 | [10] -0.076 | [11] -0.009 | [19] -0.067 | [12] -0.176 | [15] 0.39 | [16] 0.138 | [17] 0.116 | [20] -0.516 | [18] 0.42
active: [13] -1.05
